# Source: US20190175646A1, “METHODS AND COMPOSITIONS RELATING TO THE TREATMENT OF BENIGN SKIN TUMORS” (THE GENERAL HOSPITAL CORPORATION D/B/A MASSACHUSETTS …, priority 2015, published 2019)
# At least one compound was matched to its structure with a doubt left.
# Assays:
# [1] = tested on: chymotrypsin-like activity of the proteasome; conditions: cited from earlier work
# [2] = tested on: intracellular levels of Cu; conditions: cited from earlier work
# [3] = tested on: SK cells; assay: SK cell viability (Alamar blue absorbance assay); format: cell-based, human; conditions: with or without copper (Cu)
# Experimental: FIG. 1 depicts a graph in which SK cells were treated with DSF and CuCl2 (indicated concentrations) for 48 hours and relative cellular viability was measured using Alamar blue (absorbance based) assay. A443654 Akt inhibitor was used as a control.
# FIG. 2 depicts a graph in which SK cells and normal human keratinocytes were treated with DSF and CuCl2 (indicated concentrations) for 48 hours and relative cellular viability was measured using Alamar blue (absorbance based) assay. A443654 Akt inhibitor was used as a control.
# FIG. 4 depicts a graph of SK cell viability after treatment with DSF and/or Cu^2+. A443654 Akt inhibitor was used as a control.
# FIG. 5 depicts a graph of SK cell viability after treatment with DSF and/or Zn^2+. A443654 Akt inhibitor was used as a control.
# FIGS. 8 and 9 depict graphs of SK cell viability after treatment with pyrithione and/or Cu^2+. A443654 Akt inhibitor was used as a control. Cells from different donors were used for each experiment
compound,measurement,setting,value
"CCN(CC)C(=S)SSC(=S)N(CC)CC [DSF, disulfiram]",inhibition of chymotrypsin-like activity of the proteasome,[1],inhibits
same,intracellular levels of Cu,[2],increases
same,killing of SK cells in vitro,[3],efficiently kills SK cells
